Among the data in PMC10756686 are binding values, retold here.

Protein sequences, listed by entry. Tags and fused reporters are not part of them. Lines headed by an entry give the natural chain unless they say otherwise; changes in a name come on top.
UniProt Q9NSV4: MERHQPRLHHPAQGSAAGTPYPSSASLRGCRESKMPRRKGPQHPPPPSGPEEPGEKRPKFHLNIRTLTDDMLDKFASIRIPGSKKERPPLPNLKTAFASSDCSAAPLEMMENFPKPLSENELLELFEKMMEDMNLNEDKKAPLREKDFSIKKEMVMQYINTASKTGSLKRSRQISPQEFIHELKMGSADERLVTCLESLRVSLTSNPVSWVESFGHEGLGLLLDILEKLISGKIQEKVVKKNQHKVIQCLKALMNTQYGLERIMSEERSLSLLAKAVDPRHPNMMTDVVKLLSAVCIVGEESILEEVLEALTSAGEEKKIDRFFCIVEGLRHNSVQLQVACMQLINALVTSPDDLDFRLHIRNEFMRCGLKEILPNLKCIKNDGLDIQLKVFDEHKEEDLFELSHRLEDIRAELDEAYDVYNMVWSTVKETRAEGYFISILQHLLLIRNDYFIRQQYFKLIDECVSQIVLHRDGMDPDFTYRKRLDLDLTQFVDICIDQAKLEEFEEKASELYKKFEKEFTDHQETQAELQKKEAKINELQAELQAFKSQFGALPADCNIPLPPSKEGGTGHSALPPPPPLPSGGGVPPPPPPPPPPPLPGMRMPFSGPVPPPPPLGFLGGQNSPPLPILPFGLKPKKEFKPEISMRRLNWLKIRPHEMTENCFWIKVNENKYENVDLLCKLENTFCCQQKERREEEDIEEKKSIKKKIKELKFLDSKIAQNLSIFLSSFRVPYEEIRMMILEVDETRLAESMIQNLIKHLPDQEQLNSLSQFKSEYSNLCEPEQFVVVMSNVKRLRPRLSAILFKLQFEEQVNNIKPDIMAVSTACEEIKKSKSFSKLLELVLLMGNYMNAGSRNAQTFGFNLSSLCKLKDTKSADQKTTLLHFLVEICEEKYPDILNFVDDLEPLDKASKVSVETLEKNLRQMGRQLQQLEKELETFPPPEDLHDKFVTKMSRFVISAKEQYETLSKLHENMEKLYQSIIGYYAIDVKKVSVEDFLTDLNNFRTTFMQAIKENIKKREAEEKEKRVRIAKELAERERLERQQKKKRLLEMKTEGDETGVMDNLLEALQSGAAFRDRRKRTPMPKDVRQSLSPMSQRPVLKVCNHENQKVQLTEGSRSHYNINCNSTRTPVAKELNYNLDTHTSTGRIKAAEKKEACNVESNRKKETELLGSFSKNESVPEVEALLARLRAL
UniProt O60610: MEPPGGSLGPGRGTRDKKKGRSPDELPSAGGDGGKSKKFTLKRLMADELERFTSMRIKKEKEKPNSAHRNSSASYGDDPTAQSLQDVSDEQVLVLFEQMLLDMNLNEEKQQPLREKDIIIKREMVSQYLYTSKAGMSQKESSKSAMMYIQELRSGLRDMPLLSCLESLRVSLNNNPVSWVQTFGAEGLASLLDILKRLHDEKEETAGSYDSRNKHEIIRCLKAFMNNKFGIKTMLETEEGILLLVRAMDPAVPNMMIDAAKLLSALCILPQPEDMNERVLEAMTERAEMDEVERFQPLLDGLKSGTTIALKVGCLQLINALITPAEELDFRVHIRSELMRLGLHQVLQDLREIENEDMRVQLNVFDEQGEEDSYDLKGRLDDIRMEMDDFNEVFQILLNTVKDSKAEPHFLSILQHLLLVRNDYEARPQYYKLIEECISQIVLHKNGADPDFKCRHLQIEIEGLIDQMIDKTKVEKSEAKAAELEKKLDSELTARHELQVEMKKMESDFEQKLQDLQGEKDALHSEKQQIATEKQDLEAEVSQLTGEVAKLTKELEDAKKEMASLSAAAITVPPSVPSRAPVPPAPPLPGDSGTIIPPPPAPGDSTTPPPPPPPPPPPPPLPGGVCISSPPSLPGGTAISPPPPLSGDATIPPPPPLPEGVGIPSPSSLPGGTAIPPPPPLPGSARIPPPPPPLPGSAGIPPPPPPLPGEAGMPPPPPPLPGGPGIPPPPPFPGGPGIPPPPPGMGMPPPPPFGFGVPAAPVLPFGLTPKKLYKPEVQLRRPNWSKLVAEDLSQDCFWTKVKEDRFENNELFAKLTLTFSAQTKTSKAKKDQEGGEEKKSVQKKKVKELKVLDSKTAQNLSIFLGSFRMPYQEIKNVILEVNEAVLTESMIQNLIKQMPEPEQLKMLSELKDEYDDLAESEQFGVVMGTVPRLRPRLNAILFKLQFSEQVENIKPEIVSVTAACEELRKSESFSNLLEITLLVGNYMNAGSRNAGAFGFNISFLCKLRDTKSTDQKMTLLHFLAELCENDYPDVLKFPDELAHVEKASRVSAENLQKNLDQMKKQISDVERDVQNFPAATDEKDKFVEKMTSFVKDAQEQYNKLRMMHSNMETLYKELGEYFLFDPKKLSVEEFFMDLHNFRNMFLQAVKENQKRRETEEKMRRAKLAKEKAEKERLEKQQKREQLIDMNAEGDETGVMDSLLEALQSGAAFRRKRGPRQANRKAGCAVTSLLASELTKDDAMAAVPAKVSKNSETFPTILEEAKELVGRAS
UniProt O08808: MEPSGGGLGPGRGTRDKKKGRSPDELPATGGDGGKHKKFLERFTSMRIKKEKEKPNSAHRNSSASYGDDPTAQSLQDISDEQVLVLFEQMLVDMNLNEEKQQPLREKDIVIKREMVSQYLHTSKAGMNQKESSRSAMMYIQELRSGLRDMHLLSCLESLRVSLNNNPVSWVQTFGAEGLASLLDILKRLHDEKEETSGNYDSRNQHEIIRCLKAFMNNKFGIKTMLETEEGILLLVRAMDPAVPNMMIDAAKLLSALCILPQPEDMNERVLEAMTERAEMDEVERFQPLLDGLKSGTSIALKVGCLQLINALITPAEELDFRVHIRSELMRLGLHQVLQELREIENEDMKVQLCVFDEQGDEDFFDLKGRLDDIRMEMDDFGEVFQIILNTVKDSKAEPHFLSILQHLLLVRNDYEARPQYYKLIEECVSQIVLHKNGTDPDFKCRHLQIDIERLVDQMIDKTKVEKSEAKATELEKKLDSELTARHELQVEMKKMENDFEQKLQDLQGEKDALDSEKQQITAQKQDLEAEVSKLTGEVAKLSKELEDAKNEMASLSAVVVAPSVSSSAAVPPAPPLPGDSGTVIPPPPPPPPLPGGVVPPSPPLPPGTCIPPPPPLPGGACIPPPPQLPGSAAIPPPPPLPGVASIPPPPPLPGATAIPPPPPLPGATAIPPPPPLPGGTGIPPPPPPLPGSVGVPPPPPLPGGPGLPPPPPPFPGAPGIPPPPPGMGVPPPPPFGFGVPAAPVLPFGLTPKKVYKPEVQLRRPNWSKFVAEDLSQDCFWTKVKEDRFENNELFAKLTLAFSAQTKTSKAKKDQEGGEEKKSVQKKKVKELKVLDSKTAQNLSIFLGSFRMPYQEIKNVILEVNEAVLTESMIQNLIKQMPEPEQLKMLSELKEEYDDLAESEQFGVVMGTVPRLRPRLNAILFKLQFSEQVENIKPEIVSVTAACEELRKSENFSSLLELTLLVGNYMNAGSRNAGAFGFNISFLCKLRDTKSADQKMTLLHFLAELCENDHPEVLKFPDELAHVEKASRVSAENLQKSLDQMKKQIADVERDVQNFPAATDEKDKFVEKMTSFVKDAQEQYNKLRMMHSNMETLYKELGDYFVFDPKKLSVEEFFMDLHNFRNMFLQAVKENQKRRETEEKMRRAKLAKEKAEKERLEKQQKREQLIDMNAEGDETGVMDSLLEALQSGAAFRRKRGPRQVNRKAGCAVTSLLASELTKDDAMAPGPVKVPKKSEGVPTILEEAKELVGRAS

One assay addresses T1, GST-mDia2-DAD (murine) (UniProt Q9Z207).
T1 sequence: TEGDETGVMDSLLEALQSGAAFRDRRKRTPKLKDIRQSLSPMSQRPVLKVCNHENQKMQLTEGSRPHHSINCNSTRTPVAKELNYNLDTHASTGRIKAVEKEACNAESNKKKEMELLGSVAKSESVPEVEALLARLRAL
The experiment in a line: pull-down; GST fusion proteins on glutathione agarose incubated with lysate of E. coli expressing His-mDia1 constructs, 4°C 2 hours; 5 washes with NETN100 (100μM EDTA, 20mM Tris, 100mM NaCl); Western blot; only the target purified. In general terms: In western blotting, separated proteins are transferred to a membrane and probed.

For assay [1], the target named is GST-mDia2 full-length (murine) (UniProt Q9Z207). The assay is described as above.
For assay [2], the target named is mDia2-3xFLAG full length (murine) (UniProt Q9Z207). The experiment in a line: co-IP; 293T cells expressing HA-tagged mDia1 construct (stably, by the legend) transfected with mDia2 full length or DAD with C-terminal 3xFLAG; anti-FLAG immunoprecipitation, immunoblot.
In assay [3] the target is T2, mDia2 DAD domain (amino acids 1033-1171) tagged with C-terminal 3xFLAG (murine) (UniProt Q9Z207).
T2 sequence: T1 sequence
The assay is described as above.

The target in assay [4] is endogenous mDia2 (human (endogenous in 293T and K562)) (UniProt Q9NSV4). The experiment in a line: co-IP; endogenous proteins in 293T lysate (1-1.5mg total protein), 2.5μg anti-DIAPH1 or anti-DIAPH3 at 4°C overnight, protein A/G magnetic beads; Western blot; also after serum starvation for 6hr with or without 20% serum added back.
Assay [5] addresses endogenous mDia1 (human (endogenous in 293T and K562)) (UniProt O60610). Briefly: co-IP; endogenous proteins in K562 cells, anti-mDia1 antibody; Western blot.
Assay [6] has the same target. The experiment in a line: co-IP; endogenous proteins in 293T lysate (1-1.5mg total protein), 2.5μg anti-DIAPH1 or anti-DIAPH3 at 4°C overnight, protein A/G magnetic beads; Western blot; also after serum starvation for 6hr with or without 20% serum added back.
In assay [7] the target is HA-tagged murine mDia1 full length (murine) (UniProt O08808). Briefly: co-IP; 293T cells overexpressing HA-mDia1 or mDia2-3xFLAG; anti-HA or anti-FLAG magnetic beads; endogenous partner detected by Western blot; also after IMM-01 or SMIFH2 for 24 hours.
The target in assay [8] is HA-tagged mDia1 GBD-DID domain (amino acids 1-567) (murine) (UniProt O08808). The experiment in a line: co-IP; 293T cells transiently transfected with HA-tagged mDia1 and FLAG- or 3xFLAG-tagged mDia2 constructs (full length or truncated); lysate in IP buffer (50mM HEPES pH7.6, 250mM NaCl, 5mM EDTA, 0.1% NP40) on anti-HA or anti-FLAG magnetic beads, 4°C overnight, 6 washes; Western blot.

For assay [9], the target named is HA-tagged murine mDia1 full length (murine) (UniProt O08808). The description is as above.
Assay [10] addresses mDia2-3xFLAG full length (murine) (UniProt Q9Z207). The assay is described as above.
In assay [11] the target is T2, mDia2 DAD domain (amino acids 1033-1171) tagged with C-terminal 3xFLAG (murine). The assay is described as above.
Assay [12] addresses FLAG-tagged murine mDia2 (murine) (UniProt Q9Z207). The description is as above.

No constants are given. Whether binding was seen depends on the method and setting. Binding seen in cells or lysates may run through a third protein. Some results given as binding are weak or reduced against the parent protein; the word gives no strength. For part of these data: Sequences can lack the tags named with a protein.

As to “His-mDia1 full-length (from UniProt O08808 1-1255)”, the binding result (with GST-mDia2-DAD (murine); in assay [1]) was “binds” throughout. As for “HA-tagged mDia1 GBD-DID domain (amino acids 1-567) (from UniProt O08808 1-567) (domain or fragment)”, the binding entry in assay [2] and in assay [3] was “binds” each time. Consider “endogenous mDia1 (from UniProt O60610 1-1272)”, for which the binding entry in assay [4] is “binds”.

Turning to “endogenous mDia2 (from UniProt Q9NSV4 1-1193)”, the binding result in assay [5], in assay [6] and in assay [7] was “binds” each time. For “mDia2-3xFLAG full length (from UniProt Q9Z207 1-1171)”, the binding entry in assay [8] is given as “binds”. On to “FLAG-tagged murine mDia2 (from UniProt Q9Z207 1-1171)”, for which, in [9], the binding result was “binds”. As to “His-mDia1-GBD-DID (from UniProt O08808 1-567) (domain or fragment)”, the binding entry (in the assay with GST-mDia2-DAD (murine); in assay [1]) was “binds” throughout.

Regarding “HA-tagged murine mDia1 full length (from UniProt O08808 1-1255)”, the binding entry in [10], in assay [11] and in [12] was “binds” each time.
